Measured data: PubChem BioAssay AID504784 (Drosophila RNAi Screening Center, 2011)
The screen tested about 17,000 reagents; below is a random part of those with a known target gene and a result. 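Each column is one replicate's B-score; the combined score over replicates was not deposited, so single values may mislead.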 The numbers tell different reagents against one gene apart. Further read-outs or replicates are left out here.

- Aim: 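Search for regulators of lipid droplet storage in oleate-fed fly cells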 (primary screen)
- Cell system: Drosophila Kc167 embryonic cells
- Reagent: long dsRNA against Drosophila genes, about 250 ng dsRNA per well
- Time to read-out: 4 days
- Treatment: cells fed 400 µM oleic acid bound to BSA
- Measured: 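Cells imaged and segmented; ratio of lipid droplet area to nuclear area, log-transformed, then normalised as a B-score over the screen; higher means more stored lipid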
- Scale: droplet/nuclear area B-score: higher = more stored lipid (overstorage)

What did the screen give for AdoR (Adenosine receptor)?
droplet/nuclear area B-score, replicate 1: 0.0592

For pdm2 (POU domain protein 2) #1, how do the results read?
droplet/nuclear area B-score, replicate 1: 1.86

With pdm2 (POU domain protein 2) #2, what does the deposit list?
droplet/nuclear area B-score, replicate 1: 0.587

For pdm2 (POU domain protein 2) #3, how do the results read?
droplet/nuclear area B-score, replicate 1: -0.802

For CG8206, how do the results read?
droplet/nuclear area B-score, replicate 1: 0.0315

What did the screen give for Map60 (Microtubule-associated protein 60)?
droplet/nuclear area B-score, replicate 1: -1.55

How did the screen score CG5267?
droplet/nuclear area B-score, replicate 1: 1.3

Which result is listed for Bub3?
droplet/nuclear area B-score, replicate 1: 0.255

What did the screen give for Nelf-E (Negative elongation factor E)?
droplet/nuclear area B-score, replicate 1: 0.107

For Usp16-45 (Ubiquitin specific protease 16/45), what was measured?
droplet/nuclear area B-score, replicate 1: -0.631

What did the screen give for ash2 (absent, small, or homeotic discs 2)?
droplet/nuclear area B-score, replicate 1: -0.862

With CG2812, what was measured?
droplet/nuclear area B-score, replicate 1: -0.417

With CG1239, how do the results read?
droplet/nuclear area B-score, replicate 1: 0.033

What is on record for OdsH (Ods-site homeobox)?
droplet/nuclear area B-score, replicate 1: 1.25

What did the screen give for Kots (Kotsubu)?
droplet/nuclear area B-score, replicate 1: -4.2

Which result is listed for Ire1 (Inositol-requiring enzyme-1)?
droplet/nuclear area B-score, replicate 1: 4.65
